The labels stand for the following.
B1: Nanobody 39D8 (VHH, not shown: small tags and cut ends)
VHH: EVQLVESGGGLVQPGGSLRLSCAASGFTFGSYDMSWVRQAPGKGPEWVSSIDTGGDITHYADSVKGRFTISRDNANNMLYLQMNSLKPGDTAVYWCATDEDYALGPNEYDYYGQGTQVTVSS
B2: Nanobody 42G5 (VHH, not shown: small tags and cut ends)
VHH: B1 VHH with Q13R, S31N, S63P, N76A, M78T, G89E, W95Y
B3: Nanobody 42D7 (VHH, not shown: small tags and cut ends)
VHH: B1 VHH with S17P, G89E
B4: Nanobody 36G5 (VHH, not shown: small tags and cut ends)
VHH: EVQLVESGGGLVQPGGSLRLSCVASGFTFGSYDMSWVRQAPGKRPEWVSAINSGGGSTYYADSVKGRFTISRDNAKNTLYLQMNSLKPEDTAVYYCATDEDYALGPNEYDYYGQGTQVTVSS

Numbering of substitutions follows the chain as printed. Results are given in words; binding and its absence hold for the method and conditions named. Some results given as binding are weak or reduced against the parent protein; the word gives no strength.

The target in one experiment is cyno IgE c(epsilon)2-c(epsilon)3-c(epsilon)4 Fc fragment with C-terminal (His)10 tag (cynomolgus monkey). Briefly: Alphascreen competition with HuFc(epsilon)RI(alpha)Fc for cyno IgE Fc. For orientation: Bead proximity is the source of the signal in Alpha formats.
Take B1: the binding entry is given as “binds”.

In the case of B2, the binding entry was “binds”.

Turning to B3, the binding entry is “binds”.

B4: the binding entry was “binds”.

The target is the same in a further experiment. Briefly: Alphascreen screening of periplasmic extracts, block of cyno IgE Fc / HuFc(epsilon)RI(alpha)Fc.
Regarding B1, the binding entry is listed as “binds”.

In the case of B2, the binding entry was “binds”.

For B3, the binding entry is recorded as “binds”.

For B4, the binding entry is recorded as “binds”.

(Values after patent WO2012175740A1.)
